Results as given in USRE46698E1, “Use of cyclohexanol derivatives as antimicrobial active compounds” (MERCK PATENT GMBH, priority 2011, dated 2018).
For at least one compound, name, drawing or mass did not settle the structure.

Test: Rancimate assay, antioxidative capacity (Example 1)
Settings: 0.1% w/w in soya oil; 120° C.; input of air 201/h
Method: The antioxidative capacity of substances I-9, I-10 and I-2 is determined in the so-called Rancimate assay. The comparative substances used are 4-t-butyl-1-cyclohexanol and tocopherol. The positive standard employed is BHT. The measurement parameter is the time duration (induction time) of the increase in the conductivity of unstabilised soya oil on exposure to air at elevated temperature. The longer the induction time, the greater the stabilising or antioxidant action. The following boundary conditions were maintained: input of air 201/h; temperature 120° C. and sample concentrations of 0.1% w/w each in soya oil. For each test substance, a relative antioxidation-protection factor is determined, which corresponds to the ratio of the induction times with and without test substance: […]

Cc1cc(C(C)(C)C)c(O)c(C(C)(C)C)c1 [BHT, butylhydroxytoluene, reference compound]
Antioxidation-protection factor (ratio of the induction times with and without test substance): 1.30
